# Measured values: US20060241097A1, “Pesticidal substituted 1,2,5-thiadiazole derivatives” (FMC CORPORATION, priority 2003, published 2006)
# Some entries share one result that the patent states for a list of compounds.
# Tested on: two-spotted spider mite (Tetranychus urticae)
# Assay: Foliar test against two-spotted spider mite on pinto bean seedlings
# Assay type: in vivo
# Conditions: foliar spray, 300 ppm, 72 hours
# Description: Candidate pesticides, i.e., acaricides of the present invention were evaluated on 7-8 day old pinto bean seedlings infested with two-spotted spider mite (Tetranychus urticae) in comparison with the corresponding 1,2,4-thiadiazole derivatives. The test was conducted using the test method set forth below:
# One to two hours prior to the test, leaf cuttings containing about 50-75 adult mites were placed on leaves of each of duplicate pinto bean seedlings for each rate of application of candidate acaricide. Solutions of the candidate acaricide were prepared for testing by serial dilution of a standard solution comprised of an appropriate amount of acaricide in a water/acetone solvent, which contained a small amount of a surfactant. Rates of application of candidate acaricide may range from about 1000 ppm, or more, to about 1 ppm, or less, in a rate series of, for example, 1000 ppm, 300 ppm, 100 ppm, 30 ppm, 10 ppm, 3 ppm, and 1 ppm. The solutions containing each rate of application of candidate acaricide were then sprayed to run-off to both the upper and lower portions of the leaves of the mite-infested pinto bean seedlings. Each test of foliar-applied candidate acaricide included appropriate standard acaricide of known acaricidal activity and blank treatments to aid in assessing the acaricidal activity of the candidate acaricide. Upon completion of the spraying with candidate acaricide, the pinto bean seedlings were maintained in a growth chamber for a period of 72 hours. After this time, the seedlings were examined for dead acarids. […] Upon completion of the evaluation of the test, the percent control of the two-spotted spider mite for each rate of application of the candidate acaricide was determined by comparison of the total number of dead and motibund acarids to the total number of acarids in the test.
row,SMILES,Percent Control
1,"CN1CCC=C(c2nsnc2F)C1 [Compound 23, 3-fluoro-4-(1-methyl-1,2,5,6-tetrahydropyrid-3-yl)-1,2,5-thiadiazole]",> 80%
2,CC#CCOc1nsnc1C1=CCCN(C)C1 [Compound 67],> 80%
3,C#CCOc1nsnc1C1=CCCN(C)C1 [Compound 66],> 80%
4,"CN1CCC=C(c2cnsn2)C1 [Compound 4, 3-[1-methyl(1,2,5,6-tetrahydropyrid-3-yl)]-1,2,5-thiadiazole]",> 80%
